Measured values published in patent publication US6669951B2 (CellGate, Inc., priority 1999, dated 2003).

Assay: general procedure: Fmoc solid-phase peptide synthesis; HATU
Conditions: conjugation step

Row | Substance | conjugation yield | conjugation yield (run 1) | conjugation yield (run 2)
1 | Biotin-aminocaproic acid-r5-Cys(acyclovir)-CONH2 | 36% |  | 
2 | PEPTIDE1{[FITC].[Ahx].R.R.R.R.R.R.R.[am]}$$$$V2.0 |  | 33% | 55%
3 | {FITC-Ahx}-RRRRR-NH2 (SMILES N=C(N)NCCC[C@H](NC(=O)[C@H](CCCNC(=N)N)NC(=O)[C@H](CCCNC(=N)N)NC(=O)[C@H](CCCNC(=N)N)NC(=O)[C@H](CCCNC(=N)N)NC(=O)CCCCCNC(=S)Nc1ccc2c(c1)C(=O)OC21c2ccc(O)cc2Oc2cc(O)ccc21)C(N)=O) | 29% |  | 

Some peptides are written in HELM: one residue between dots, names in brackets for other building blocks, links after the first $. * marks the point of attachment. FITC = O=C1OC2(c3ccc(O)cc3Oc3cc(O)ccc32)c2ccc(NC(=S)*)cc21; Ahx = NCCCCCC(=O)O
